# From the supplement of paper PMC8975748
# Where a name gives a salt, the structure may show the parent alone. ± gives the standard deviation of the averaged measurements. Some of the results follow. These are raw signals, not scaled to a control.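 One yeast strain harboring four plasmids, each bearing a fluorescent protein plus an amino-acid or uracil synthesis gene, founds the community. Random loss of plasmids produces mixed prototroph and auxotroph subpopulations. Cells were fixed, then counted with automated confocal fluorescence imaging, with DMSO-treated wells as vehicle reference.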
# System: Saccharomyces cerevisiae BY4741 SeMeCo community
# Experiment: imaged cell count per well (cells); higher = more cells
# Details: 10 µM; 24 h; SM minimal medium
# Description: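 Same SeMeCo high-content imaging drug screen: Selleck FDA-approved drugs at 10 µM, 24 h in SM medium, 384-well plates, 3 replicates.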
row,SMILES,imaged cell count per well
1,CCCN(CCC)CCc1cccc2c1CC(=O)N2 [Ropinirole HCl],25100 ± 6300
2,CC(=O)OC(C)C[N+](C)(C)C (centres undefined) [Methacholine chloride],19900 ± 4800
3,N[C@@H]1CONC1=O [D-Cycloserine],28500 ± 3400
4,NC(=O)N1c2ccccc2C=Cc2ccccc21 [Carbamazepine],22400 ± 1200
